# Screening data, single-dose tests

Sequences of proteins named here, by UniProt entry; tags and fusion partners are left off. Residues count along the entry.
UniProt I6X8D2, whole entry: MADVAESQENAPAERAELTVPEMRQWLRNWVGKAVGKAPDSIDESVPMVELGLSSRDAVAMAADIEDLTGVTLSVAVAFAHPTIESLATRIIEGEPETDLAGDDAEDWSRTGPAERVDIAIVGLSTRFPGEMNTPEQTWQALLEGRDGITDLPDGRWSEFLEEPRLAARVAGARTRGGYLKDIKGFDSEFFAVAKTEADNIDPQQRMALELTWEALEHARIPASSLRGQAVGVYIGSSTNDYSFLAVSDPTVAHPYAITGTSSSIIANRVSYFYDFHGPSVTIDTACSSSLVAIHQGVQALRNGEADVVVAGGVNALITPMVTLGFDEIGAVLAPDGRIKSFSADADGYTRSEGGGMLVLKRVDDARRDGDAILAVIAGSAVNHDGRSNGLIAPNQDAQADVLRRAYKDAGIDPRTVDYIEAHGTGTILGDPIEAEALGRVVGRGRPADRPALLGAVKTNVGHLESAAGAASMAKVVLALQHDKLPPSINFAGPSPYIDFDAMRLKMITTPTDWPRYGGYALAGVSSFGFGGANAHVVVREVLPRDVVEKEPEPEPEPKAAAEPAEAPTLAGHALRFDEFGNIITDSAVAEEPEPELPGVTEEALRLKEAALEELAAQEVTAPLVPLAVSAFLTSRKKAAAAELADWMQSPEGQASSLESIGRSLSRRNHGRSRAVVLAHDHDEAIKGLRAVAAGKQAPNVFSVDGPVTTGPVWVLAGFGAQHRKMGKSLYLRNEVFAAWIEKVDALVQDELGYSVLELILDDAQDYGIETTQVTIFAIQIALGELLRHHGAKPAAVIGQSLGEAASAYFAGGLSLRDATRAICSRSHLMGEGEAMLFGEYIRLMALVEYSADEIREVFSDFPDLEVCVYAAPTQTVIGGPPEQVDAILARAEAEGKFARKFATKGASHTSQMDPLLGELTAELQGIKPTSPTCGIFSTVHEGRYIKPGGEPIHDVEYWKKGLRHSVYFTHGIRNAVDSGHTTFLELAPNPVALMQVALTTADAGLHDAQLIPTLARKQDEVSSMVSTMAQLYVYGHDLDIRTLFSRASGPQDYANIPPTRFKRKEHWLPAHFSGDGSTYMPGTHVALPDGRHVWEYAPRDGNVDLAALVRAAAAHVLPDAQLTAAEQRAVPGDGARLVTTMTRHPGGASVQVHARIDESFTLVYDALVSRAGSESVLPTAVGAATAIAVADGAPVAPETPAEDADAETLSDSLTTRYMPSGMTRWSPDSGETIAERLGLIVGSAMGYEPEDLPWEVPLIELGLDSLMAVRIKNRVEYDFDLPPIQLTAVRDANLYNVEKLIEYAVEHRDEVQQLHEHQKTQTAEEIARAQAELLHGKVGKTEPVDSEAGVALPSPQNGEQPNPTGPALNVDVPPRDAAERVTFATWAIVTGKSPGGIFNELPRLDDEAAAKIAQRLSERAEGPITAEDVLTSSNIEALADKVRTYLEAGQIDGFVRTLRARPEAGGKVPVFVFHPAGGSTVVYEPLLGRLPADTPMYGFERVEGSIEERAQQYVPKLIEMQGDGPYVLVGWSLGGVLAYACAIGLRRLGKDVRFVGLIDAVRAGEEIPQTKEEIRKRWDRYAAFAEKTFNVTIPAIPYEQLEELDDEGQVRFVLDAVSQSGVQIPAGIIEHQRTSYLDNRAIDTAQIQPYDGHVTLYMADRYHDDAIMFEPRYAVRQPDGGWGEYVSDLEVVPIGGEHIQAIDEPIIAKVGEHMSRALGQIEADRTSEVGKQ
UniProt Q8IDJ8, 1-583: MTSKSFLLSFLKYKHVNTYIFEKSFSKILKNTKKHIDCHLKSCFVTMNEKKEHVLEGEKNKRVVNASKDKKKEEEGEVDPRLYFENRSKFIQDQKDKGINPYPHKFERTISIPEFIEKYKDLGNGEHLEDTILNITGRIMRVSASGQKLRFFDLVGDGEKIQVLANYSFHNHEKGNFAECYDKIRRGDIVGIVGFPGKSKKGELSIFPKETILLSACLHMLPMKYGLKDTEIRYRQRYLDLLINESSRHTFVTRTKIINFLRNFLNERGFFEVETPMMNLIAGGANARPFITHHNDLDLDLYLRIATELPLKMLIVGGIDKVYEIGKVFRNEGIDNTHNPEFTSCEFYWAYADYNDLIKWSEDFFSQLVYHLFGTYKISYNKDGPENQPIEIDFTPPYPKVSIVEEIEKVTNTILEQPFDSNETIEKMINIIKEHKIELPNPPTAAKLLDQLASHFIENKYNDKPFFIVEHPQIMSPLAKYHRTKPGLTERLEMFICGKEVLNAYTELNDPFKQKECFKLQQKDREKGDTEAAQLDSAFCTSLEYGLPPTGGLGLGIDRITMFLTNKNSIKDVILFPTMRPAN
UniProt A4I591, 1-473: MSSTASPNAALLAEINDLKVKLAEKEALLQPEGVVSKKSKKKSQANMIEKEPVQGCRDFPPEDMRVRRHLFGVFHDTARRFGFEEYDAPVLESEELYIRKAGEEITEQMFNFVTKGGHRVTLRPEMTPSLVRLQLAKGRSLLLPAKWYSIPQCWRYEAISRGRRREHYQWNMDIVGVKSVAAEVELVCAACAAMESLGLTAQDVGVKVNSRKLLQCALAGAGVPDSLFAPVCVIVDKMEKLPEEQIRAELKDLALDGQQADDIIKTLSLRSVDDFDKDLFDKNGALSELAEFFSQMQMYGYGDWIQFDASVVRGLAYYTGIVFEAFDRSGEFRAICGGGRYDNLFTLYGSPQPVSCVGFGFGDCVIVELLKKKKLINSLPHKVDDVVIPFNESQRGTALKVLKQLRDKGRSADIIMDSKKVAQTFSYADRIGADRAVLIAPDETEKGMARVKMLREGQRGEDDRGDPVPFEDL
UniProt P9WFT3, whole entry: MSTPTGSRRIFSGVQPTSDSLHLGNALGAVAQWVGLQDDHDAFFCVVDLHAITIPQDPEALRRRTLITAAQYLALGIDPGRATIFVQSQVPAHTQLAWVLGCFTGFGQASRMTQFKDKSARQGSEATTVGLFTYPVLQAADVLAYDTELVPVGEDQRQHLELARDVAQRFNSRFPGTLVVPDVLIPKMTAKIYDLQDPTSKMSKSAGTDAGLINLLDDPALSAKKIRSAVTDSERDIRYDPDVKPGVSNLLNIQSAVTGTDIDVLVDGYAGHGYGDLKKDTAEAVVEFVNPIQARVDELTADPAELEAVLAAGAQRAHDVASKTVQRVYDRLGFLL

Data taken from ChEMBL document CHEMBL3988442, “University of Dundee, Small-Polar-MMV Screening Library” (2021).

The filed quantity is “Percent Effect” (%). The record does not define 0% and 100%; most values in the screen are far below 50% and negative numbers occur (in some assays of this library far below -100). Compounds were drawn at random from those tested, without regard to their results. A dash means the value is not listed here; it may have been measured.

A: 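Enzyme assay of the thioesterase domain of polyketide synthase 13; the read-out is not stated. Target: Polyketide synthase Pks13, Mycobacterium tuberculosis (UniProt I6X8D2). Tested at 30 µM. The record gives no direction; the compounds picked for IC50 retests had high values, so higher reads as stronger inhibition. About 67,000 compounds were tested under these conditions; 0.46% (about 300) showed 50% or more at least once.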
B: 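Enzyme assay of the cytosolic lysyl-tRNA synthetase in 384-well plates, read by luminescence. Target: Lysine-tRNA ligase, Plasmodium falciparum 3D7 (UniProt Q8IDJ8). Tested at 30 µM. Direction is inferred from only a few compounds that gave an IC50; most scored high, so higher reads as stronger inhibition. Size under these conditions: about 69,000 compounds, about 49 of them at 50% or above in at least one test.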
C: 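Enzyme assay of histidyl-tRNA synthetase; the read-out is not stated. Target: Histidine-tRNA ligase, Leishmania infantum (UniProt A4I591). Tested at 30 µM. Direction is inferred from retests: higher values go with stronger inhibition. The assay is labelled LdHisRS but filed under L. infantum. Size under these conditions: about 69,000 compounds, about 410 of them at 50% or above in at least one test.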
D: 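Tryptophan-tRNA ligase, Mycobacterium tuberculosis (UniProt P9WFT3). Enzyme assay of tryptophanyl-tRNA synthetase; the read-out is not stated. Concentration: 10 µM. Higher most likely means stronger inhibition; the record gives no direction and few retests gave an IC50. Size under these conditions: about 65,000 compounds, about 64 of them at 50% or above in at least one test.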

| # | compound | A | B | C | D |
|---|---|---|---|---|---|
| 1 | `COCCN1C[C@@H]2CN(c3cc(OC)ncn3)CCC[C@]2(C(=O)O)C1` | 1.961 | -2.423 | 6.195 | 5.976 |
| 2 | `COc1ccc(-c2n[nH]cc2CN(C)Cc2nonc2C)c(F)c1` | -27.89 | 4.011 | 1.493 | 4.095 |
| 3 | `COc1ccc(CNC(=O)c2nc3c(s2)CCN(C(C)=O)CC3)cc1` | -3.151 | 2.665 | 20 | 0.7819 |
| 4 | `Cn1cc(CN2CCC3(C2)CN(Cc2ccsc2)C3)cn1` | -16.81 | 0.06566 | 16.04 | 2.071 |
| 5 | `CCc1cnc(CN(C)C2CCN(CCc3ccccn3)C2)o1` (stereo not shown) | -8.76 | 0.5042 | 20.19 | 5.498 |
| 6 | `Cc1cc(C(=O)N2C[C@@H]3CCCO[C@@H]3[C@H](N3CCOCC3)C2)c(C)[nH]1` | -6.685 | 0.1847 | 9.735 | -1.355 |
| 7 | `Cc1cccc(CN2CCOC3(CCCN(CC(=O)N(C)C)C3)C2)n1` (stereo not shown) | -3.002 | 3.6 | 26 | -6.623 |
| 8 | `O[C@H]1CC[C@@H](Cc2cc(-c3ccccc3)on2)O[C@@H]1CNCC1CC1` | -34.5 | 5.024 | 22.22 | -1.022 |
| 9 | `Cc1n[nH]c(C2CN(C(=O)c3cc(C4CC4)[nH]n3)CCO2)n1` (stereo not shown) | -16.41 | 3.026 | 8 | 5.551 |
| 10 | `O=S(=O)(NCC(O)c1ccoc1)c1ccc(Cl)s1` (stereo not shown) | -25.06 | -1.965 | 18.18 | 3.708 |
| 11 | `COCCOc1ncccc1C(=O)N1CCCC(n2ccnc2C)C1` (stereo not shown) | -16.27 | 0.3458 | 5.769 | -3.046 |
| 12 | `COc1cc(S(=O)(=O)N2CCc3cc(Br)ccc32)cc(C(=O)O)c1OC` | -5.351 | 1.294 | -5.172 | 9.952 |
| 13 | `c1csc(COC[C@H]2CCC[C@]23CN(Cc2ccoc2)CCO3)n1` | -18.25 | -0.6717 | 22 | -1.251 |
| 14 | `Cc1cccc(CN2CCC3(CCCN(Cc4cnn(C)c4)C3)C2)n1` (stereo not shown) | -4.442 | 3.478 | 3.96 | - |
| 15 | `O=C(NCc1csc(Br)c1)c1ccc(=O)[nH]n1` | 8.703 | 2.371 | 18.92 | -5.556 |
| 16 | `O=c1ccc2c(n1CC1CC1)CCN(c1ncccn1)CC2` | 15.25 | 2.429 | 15.09 | - |
| 17 | `Clc1cc(NCc2ncc[nH]2)nc2[nH]ccc12` | -10.96 | -1.52 | 10.84 | -1.53 |
| 18 | `c1cnc(-c2nc(C3CCOC3)no2)cn1` (stereo not shown) | -3.986 | 5.685 | 12.86 | -1.444 |
| 19 | `O=C1CO[C@@H]2CN(Cc3nccs3)C[C@H]2N1Cc1ccncc1` | -8.791 | 3.557 | 16.36 | 1.569 |
| 20 | `COCCCN1CC2(CCCN(c3ncnc4[nH]ccc34)C2)CCC1=O` (stereo not shown) | -19.45 | 5.01 | 17.78 | -1.975 |
| 21 | `CC(=O)N1CCN(CCNc2snc(Cl)c2C#N)CC1` | 23.56 | 1.014 | 32.88 | -5.253 |
| 22 | `Cc1ncc2c(c1CNC(=O)C1(C)CCCO1)CCNC2` (stereo not shown) | -30.16 | 6.832 | 12.82 | -1.024 |
| 23 | `CN(C)C(=O)N1CCN(CCCc2ccccc2)[C@H]2CS(=O)(=O)C[C@H]21` | -15.03 | 3.556 | 11.11 | -1.458 |
| 24 | `N[C@H]1CN(C(=O)c2ccc3[nH]c(CO)nc3c2)C[C@@H]1c1ccccc1` | -10.28 | -2.718 | 1.205 | 1.377 |
| 25 | `Cn1nc(C(=O)N2CCOCC2)cc1C(=O)Nc1ncc(Cl)cc1Cl` | -27.06 | -5.078 | -8.929 | -0.5025 |
| 26 | `COC(=O)N1CCCCC1C(=O)N1CCC(c2ccncc2)CC1` (stereo not shown) | 12.83 | -2.365 | -17.05 | 0.08211 |
| 27 | `O=c1c2ccc(C(F)(F)F)cc2ncn1CCCN1CCCCC1CO` (stereo not shown) | -6.62 | 4.053 | 4.348 | -3.055 |
| 28 | `CCc1c(C(=O)N2CCNC(=O)C2)cnn1C(C)(C)C` | 1.81 | 0.1107 | 11.54 | -0.7252 |
| 29 | `CCCn1ncc(C(=O)NCCc2[nH]nc3c2CCCC3)c1C` | -12.48 | 5.139 | 10.83 | -6.078 |
| 30 | `CN(C)C(c1ccccn1)[C@H]1CC[C@H](CNC(=O)C2CCCC2)CC1` (stereo partly shown) | 8.203 | -0.5722 | 7.092 | -7.815 |
| 31 | `NC(=O)CN1CC(O)c2ccccc2S1(=O)=O` (stereo not shown) | 12.26 | 4.404 | 10.2 | - |
| 32 | `c1cncc(CC2CN(c3cccnc3)CCO2)c1` (stereo not shown) | 10.83 | 2.112 | 1.053 | -0.7536 |
| 33 | `Cc1ccc(CN(C)C(=O)c2ccc(NC3CC3)nc2)o1` | -4.519 | 3.704 | 14.91 | -4.066 |
| 34 | `CC(C)n1c(C(=O)N2CCCC2)nc2c1CCN(c1ncccn1)C2` | -17.1 | 8.515 | 18.97 | -2.697 |
| 35 | `Cc1nc(-c2cccc(Cl)c2)n(CC(=O)NCC2CCCO2)c(=O)c1C` (stereo not shown) | -30.64 | 2.436 | 17.7 | 0.1434 |
| 36 | `COCCc1noc(CN2CCCC2Cn2cccn2)n1` (stereo not shown) | -0.4308 | 3.604 | 8.696 | -2.532 |
| 37 | `C[C@@H]1CN(CCC(=O)N(C)Cc2ccccc2)CC[C@@]1(O)C1CCC1` | -17.58 | -3.06 | -0.8333 | -2.171 |
| 38 | `Cc1nccn1CCC1CCNCC1` | 4.219 | 0.2134 | 10.14 | -7.326 |
| 39 | `CN1CC(=O)N(C2CCNCC2)Cc2c(NCC(C)(C)C)ncnc21` | -9.413 | 8.637 | 16.55 | -9.94 |
| 40 | `COc1cc(C2CC(=O)Nc3c2cnn3C)ccc1O` (stereo not shown) | -10.13 | -2.55 | -2.564 | -3.595 |
| 41 | `CC(CNS(N)(=O)=O)Oc1ccc(Cl)cc1` (stereo not shown) | -9.216 | 2.744 | 13.43 | 0.273 |
| 42 | `COc1ccc(-n2nnnc2C2(NCc3ccco3)CCCCC2)cc1` | 1.174 | -0.9189 | 2.381 | -0.000006 |
| 43 | `Cc1cccc(C(=O)NCCNS(=O)(=O)c2cccs2)c1C` | -30.18 | 10.28 | 3.896 | -4.751 |
| 44 | `CC1CCN(CC(=O)NC2CCN(C(C)c3ccccc3)CC2)CC1` (stereo not shown) | 6.27 | 1.438 | 10.07 | -2.865 |
| 45 | `Cc1cnc(C(=O)N2C[C@@H](NS(C)(=O)=O)[C@@H]3OCCC[C@@H]32)cn1` | -8.441 | 0.3401 | 10.09 | -2.827 |
| 46 | `CCc1ccc(CC)c(NCc2cnc(N3CCOCC3)nc2)c1` | -13.04 | 0.3251 | 9.333 | -1.877 |
| 47 | `CC(C)SCc1cccc(NC(=O)NCCc2nnc[nH]2)c1` | -23.79 | 4.089 | 15.38 | -1.722 |
| 48 | `CC(NCCCC#N)c1ccc(-c2ccncc2)cc1` (stereo not shown) | -11.74 | -0.2987 | 6.349 | -3.749 |
| 49 | `O=C(CCc1nc2cccnc2[nH]1)NCc1ccc2c(c1)OCO2` | -26.94 | 7.359 | 15.53 | -3.618 |
| 50 | `CCCN1CCN(C(=O)CCn2cccc2)CC1` | 6.019 | 5.633 | 23.68 | 0.3408 |
| 51 | `Cc1cc(NC(=O)Cn2ccc(-c3ccc4c(c3)OCO4)n2)n(C)n1` | -3.216 | 2.471 | 9.89 | -0.9709 |

For reference, 5 entries once more:

compound	A	B	C	D
N[C@H]1CN(C(=O)c2ccc3[nH]c(CO)nc3c2)C[C@@H]1c1ccccc1	-10.28	-2.718	1.205	1.377
Cc1ccc(CN(C)C(=O)c2ccc(NC3CC3)nc2)o1	-4.519	3.704	14.91	-4.066
O=c1ccc2c(n1CC1CC1)CCN(c1ncccn1)CC2	15.25	2.429	15.09	-
Cc1ncc2c(c1CNC(=O)C1(C)CCCO1)CCNC2 (stereo not shown)	-30.16	6.832	12.82	-1.024
c1cnc(-c2nc(C3CCOC3)no2)cn1 (stereo not shown)	-3.986	5.685	12.86	-1.444